# Test results from PubChem BioAssay AID1347415 (National Center for Advancing Translational Sciences (NCATS), 2020).
# The shares of active, inactive and inconclusive entries below differ from those in the screen. Potencies of inconclusive entries are doubtful fits and often do not repeat. Activity calls are given as the source filed them. The call rests on the fitted dose curve; in most records, active means well fitted inhibition curve with a large enough effect; inconclusive means small, poorly fitted or top-dose-only effect; inactive means no such curve, though single readings can be large or run the other way.
# Assay: qHTS to identify inhibitors of the type 1 interferon - major histocompatibility complex class I in skeletal muscle: tertiary screen by RT-qPCR
# Settings: C25cl48 human myoblasts, IFN-beta, HLA-B RT-qPCR, 24 h; series mostly up to 49.8 µM; activity change, negative = inhibition: at the top concentration
# From the text: Assay Submitter (PI): Travis B. Kinder Ph.D. & James Inglese Ph.D. Assay Development and Screening Technology Laboratory (ADST) National Center for Advancing Translational Sciences (NCATS), Rockville, MD National Institute of Health (NIH), Bethesda, Maryland Idiopathic inflammatory myopathies, collectively referred to as myositis, are a group of rare autoimmune diseases characterized by skeletal muscle inflammation, weakness, and usually accompanied by systemic pathologies of the skin, lungs, or vasculature. Current immunosuppressive therapies and glucocorticoids are often not curative and are accompanied by harsh side effects, especially in children with juvenile myositis. We initiated a drug repurposing and development program to identify more targeted, less toxic therapeutics to treat myositis. Although its cause is not known, muscle from a subset of patients have an abundance of the inflammatory type 1 interferon (IFN) and a down-stream product major histocompatibility complex class I (MHC class I), which are both thought to contribute to damage and weakness. We conducted quantitative high throughput screening (qHTS) on 6,576 compounds (4,679 unique) through a series of cell-based assays to identify those that inhibit the IFN-stimulated expression of MHC class I in muscle precursor cells (myoblasts). The compound identification and evaluation strategy utilized a primary screen with reporter-tagged MHC class I in genome-engineered myoblasts, ATP content counter screen for viability, HLA-ABC immunofluorescence secondary screen, and HLA-B RT-qPCR tertiary screen. To determine if active compounds identified by qHTS in HLA-B HiBit reporter cells, and confirmed by HLA-ABC immunofluorescence, can inhibit the transcription of HLA-B mRNA, compounds were assayed by RT-qPCR. Briefly, 62 compounds identified from primary, counter, and secondary screening as inhibitory with minimal cytotoxicity were dispensed into 384-well plates using acoustic dispensing in a 6-point, 1:7 titration with a high final concentration of 10 uM. Normal immortalized human myoblasts C25cl48 were added to the plate with 4.0 ng/ml human IFN-beta for 24 hours, and cells were harvested and assayed by the Cells-to-Ct kit with TaqMan assays (Thermo Fisher).
# PROTOCOL TABLE (as described by Inglese et al., 2007) SEQUENCE No. (e.g., 1, 2, 3, etc.); […] (e.g., Cells, Incubation, Reagent, etc.); VALUE; DESCRIPTION 0; Compounds; 150 nl; Follow-up compounds dispensed at 150 nl/well with Labcyte Echo 655 acoustic dispenser into one Corning white/clear bottom, high base TC 384-well plates (3765) 1a; Cells; 30 uL; Using a p200 manual pipette, seed 780 cells/well into 1 plate in 30 ul/well of iHSKM growth medium without dexamethasone into columns wells A1-A6. […]
SMILES,"activity change, negative = inhibition",Potency
C[C@@H]1O[C@@H](O[C@@H]2C=C3CC[C@@H]4[C@H](CC[C@]5(C)[C@@H](c6ccc(=O)oc6)CC[C@]45O)[C@@]3(C)CC2)[C@H](O)[C@H](O)[C@H]1O,inactive: -8.47%,–
CC(C)[C@]12O[C@H]1[C@@H]1O[C@@]13[C@@]1(C)CCC4=C(COC4=O)[C@@H]1C[C@@H]1O[C@@]13C2=O,inactive: -132%,–
Cc1sc2c(c1C)C(c1ccc(Cl)cc1)=N[C@@H](CC(N)=O)c1nnc(C)n1-2,–,"inconclusive: 0.013 µM [inhibitor, full curve, poor fit]"
Cc1sc2c(c1C)C(c1ccc(Cl)cc1)=N[C@@H](CC(=O)Nc1ccc(O)cc1)c1nnc(C)n1-2,–,"inconclusive: 36.8 µM [inhibitor, partial curve, poor fit]"
COC(=O)[C@@]12OC[C@]34[C@H]([C@@H](O)[C@@H]1O)[C@@]1(C)CC(=O)C(O)=C(C)[C@@H]1C[C@H]3OC(=O)[C@H](OC(=O)/C=C(\C)C(C)C)[C@@H]24,–,"inconclusive: 0.368 µM [inhibitor, full curve]"
C/C=C(/C)C(=O)O[C@H]1C(C)=C2[C@H]([C@@H]1OC(=O)CCCCCCC)[C@@](C)(OC(C)=O)C[C@H](OC(=O)CCC)[C@@]1(O)[C@H]2OC(=O)[C@@]1(C)O,–,"inconclusive: 29.2 µM [inhibitor, single point]"
